Test results: paper PMC11335278
No constants are given. Whether binding was seen depends on the method and setting. In cells and extracts the contact can be indirect. Some results given as binding are weak or reduced against the parent protein; the word gives no strength.

Protein sequences, listed by entry. Tags and fused reporters are not part of them. Residues count along the entry.
UniProt P27986, residues 79-333: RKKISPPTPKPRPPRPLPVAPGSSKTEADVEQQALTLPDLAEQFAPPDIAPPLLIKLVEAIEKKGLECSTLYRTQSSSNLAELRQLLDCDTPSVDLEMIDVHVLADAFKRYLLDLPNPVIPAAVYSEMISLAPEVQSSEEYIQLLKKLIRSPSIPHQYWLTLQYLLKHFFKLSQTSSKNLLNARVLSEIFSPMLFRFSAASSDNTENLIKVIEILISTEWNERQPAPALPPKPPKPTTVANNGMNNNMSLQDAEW
UniProt Q8CFN2: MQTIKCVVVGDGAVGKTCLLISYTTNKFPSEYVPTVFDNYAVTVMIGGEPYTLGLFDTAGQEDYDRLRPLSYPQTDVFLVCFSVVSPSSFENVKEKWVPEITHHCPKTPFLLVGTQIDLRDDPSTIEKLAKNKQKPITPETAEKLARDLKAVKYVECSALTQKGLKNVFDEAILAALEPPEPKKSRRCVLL
UniProt Q63788: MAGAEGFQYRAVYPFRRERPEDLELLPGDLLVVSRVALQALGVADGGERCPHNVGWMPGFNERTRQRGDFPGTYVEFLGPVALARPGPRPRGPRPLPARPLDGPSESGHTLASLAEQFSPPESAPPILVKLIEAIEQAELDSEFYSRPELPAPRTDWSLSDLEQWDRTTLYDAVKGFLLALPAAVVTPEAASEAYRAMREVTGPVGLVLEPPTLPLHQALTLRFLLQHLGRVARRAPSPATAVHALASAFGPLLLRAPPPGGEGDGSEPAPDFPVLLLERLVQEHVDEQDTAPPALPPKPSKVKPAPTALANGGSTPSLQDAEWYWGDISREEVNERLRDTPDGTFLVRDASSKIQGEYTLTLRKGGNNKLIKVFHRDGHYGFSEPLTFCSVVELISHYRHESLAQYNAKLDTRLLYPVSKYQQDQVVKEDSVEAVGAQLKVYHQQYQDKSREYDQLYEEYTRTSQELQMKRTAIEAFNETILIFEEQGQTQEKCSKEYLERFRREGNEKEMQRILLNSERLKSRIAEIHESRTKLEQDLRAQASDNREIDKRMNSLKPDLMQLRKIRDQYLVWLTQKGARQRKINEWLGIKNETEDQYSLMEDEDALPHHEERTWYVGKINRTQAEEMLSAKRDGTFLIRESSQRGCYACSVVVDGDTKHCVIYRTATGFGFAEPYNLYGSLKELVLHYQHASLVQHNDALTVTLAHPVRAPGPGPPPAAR

What was measured:
[1] = biological target: GST fused to the BH domain of p85α (UniProt P27986); assay: pull-down; as a1, but lysates incubated with 10 mM EDTA (40 min, room temperature), then 1 mM GDP with 60 mM MgCl2 (1 h on ice): inactive form of the GTPase; only the target purified
[2] = biological target: GST fused to the BH domain of p85β (UniProt O00459); assay: as above
[3] = biological target: GST fused to the BH domain of p85α (UniProt P27986); assay: pull-down; as a1, but lysates incubated with 10 mM EDTA (40 min, room temperature), then 0.1 mM GMP-PNP with 60 mM MgCl2 (1 h on ice): active form of the GTPase; only the target purified
[4] = biological target: GST fused to the BH domain of p85β (UniProt O00459); assay: as above
[5] = biological target: GST fused to the BH domain of p85α (UniProt P27986); assay: pull-down; GST fusion protein on glutathione beads as bait, 50 µg lysate, 1 h at 4 °C; lysis buffer 20 mM Tris-HCl pH 7.5, 150 mM NaCl, 1% Triton X-100, 1 mM DTT, 10 mM MgCl2; extracts without nucleotide incubation; Western blot for Rac1 and Cdc42; only the target purified
[6] = biological target: GST fused to the BH domain of p85β (UniProt O00459); assay: as above
[7] = biological target: p110α catalytic subunit of PI3K (rat (endogenous in hippocampal neurons)); assay: co-IP; anti-p110α antibody and Protein G Sepharose from hippocampal extracts (20 mM Tris-HCl pH 7.5, 150 mM NaCl, 1% Triton X-100, 1 mM EGTA, 1 mM EDTA, 5 mM MgCl2); neurons infected with shp85α (L + S) or shp85β; Western blot

binding [1] | binding [2] | binding [3] | binding [4] | binding [5] | binding [6] | binding [7] | Substance
binds | binds | binds | binds | binds weakly | binds weakly | – | Cdc42 (from UniProt Q8CFN2 1-191)
– | – | – | – | – | – | binds | p85α regulatory subunit of PI3K (from UniProt Q63787-1 1-724)
– | – | – | – | – | – | binds | p85β regulatory subunit of PI3K (from UniProt Q63788 1-722)
